Results as given in paper PMC7819943, “Rice protein-binding microarrays: a tool to detect cis-acting elements near promoter regions in rice”.
Some of the results follow.

By UniProt entry, the sequences of proteins in these tests, tags left out.
UniProt Q0JBA9, entry or part of it: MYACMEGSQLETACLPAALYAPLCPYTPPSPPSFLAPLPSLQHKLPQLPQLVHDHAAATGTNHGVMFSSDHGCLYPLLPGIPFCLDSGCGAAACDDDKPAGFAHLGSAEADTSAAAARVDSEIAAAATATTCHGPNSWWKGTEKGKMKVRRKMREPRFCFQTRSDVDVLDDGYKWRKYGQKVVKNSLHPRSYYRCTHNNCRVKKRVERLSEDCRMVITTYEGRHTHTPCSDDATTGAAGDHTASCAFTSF

Biological target: OsWRKY34 (Oryza sativa, UniProt Q0JBA9 1-250)
Test: protein-binding microarray (RPBM); PBS, 2% BSA, 51.3 ng/ul salmon testes DNA, 50 uM zinc acetate, 200 nM TF, 25 C, 1 h; high values mean tight binding
Settings: protein: recombinant; tags: N-terminal polyhistidine and DsRed monomer fusion (pET32a); label: CyDye5-dUTP incorporated in the synthesized complementary strand; 3' TTTTT single-stranded linker to array surface; dsDNA, one strand shown
Summary of the method: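 In PBS with 2% BSA, salmon testes DNA and 50 µM zinc acetate, 200 nM protein was incubated on a custom Agilent array at 25 °C for 1 h and then washed off. The array had been made double-stranded by primer extension with Cy5-dUTP and blocked with 2% BSA. The proteins were transcription factors fused N-terminally to polyhistidine and DsRed, expressed in E. coli BL21-CodonPlus and purified on Ni–NTA. The binding signal is per-feature fluorescence intensity (arbitrary units) from an Axon 4000B scanner.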

Sequence | binding signal
AAATTACGCTTTTGGCCACATATTTGCTCTAAGCTTTTTCCGGAGTCACCTAGTGCAG | 8270 fluorescence intensity (a.u.)
GTGACTTCCGTTTTCACCGCTCAAGCGAAACTTTATCCTCCGGAGTCACCTAGTGCAG | 8590 fluorescence intensity (a.u.)
GCAAATCATCGCCTGTATTGTCCTGCCCTATCACTGCACACGGAGTCACCTAGTGCAG | 8220 fluorescence intensity (a.u.)
TTAATACCTGCTTTGGGGTGGGAGTTGGGAGACTATCTCACGGAGTCACCTAGTGCAG | 11500 fluorescence intensity (a.u.)
CCTTCTCAGCGACGTGTGGCATCTTGCTCCAGATCTTCTACGGAGTCACCTAGTGCAG | 10400 fluorescence intensity (a.u.)
TACTACGTAAAGTTTATTTATTTTTTATGTTCGTATGATCCGGAGTCACCTAGTGCAG | 9580 fluorescence intensity (a.u.)
GAGCACTACATCTCTCGTCCAACGCCAAACTCTCTCTCTCCGGAGTCACCTAGTGCAG | 13400 fluorescence intensity (a.u.)
ACTCTCCGCGAAGTTCATTTCCCCTCAAATTTAATATTTTCGGAGTCACCTAGTGCAG | 8550 fluorescence intensity (a.u.)
CTGTATTTGACTGTTACTGCTTTTGGATTTTGTTTCATTTCGGAGTCACCTAGTGCAG | 10800 fluorescence intensity (a.u.)
GATGCGAAACGTGGCCCGAGCCTCCGCCTACACCGACCCGCGGAGTCACCTAGTGCAG | 8390 fluorescence intensity (a.u.)
TCTTTTCCACCGCTTTTTTTTTTGTTTCCTCACGTGGTTTCGGAGTCACCTAGTGCAG | 8320 fluorescence intensity (a.u.)
TCGCGCGTGTCACTGGGTTTGGGTTGGGTCTCTCTCTCTCCGGAGTCACCTAGTGCAG | 18400 fluorescence intensity (a.u.)
GGTTTCGTAGTTTGAGTATTTTTTTTATCAATTCATTCCCCGGAGTCACCTAGTGCAG | 9810 fluorescence intensity (a.u.)
GAGAGGTAGCGGGCTGGGTTAGGACTGAAATGGAACGAATCGGAGTCACCTAGTGCAG | 8550 fluorescence intensity (a.u.)
CAGCGTGTGTGCACTTACCTGCTCGATCGATCTGCACCTCCGGAGTCACCTAGTGCAG | 8900 fluorescence intensity (a.u.)
GTGCATTCCCTACTGTTATCACACTTGCCAACAGCGCTGGCGGAGTCACCTAGTGCAG | 8520 fluorescence intensity (a.u.)
CTACCCAATCCATCCATCCGCCGCGCCTCTCTCTCCTTCACGGAGTCACCTAGTGCAG | 11000 fluorescence intensity (a.u.)
CGCGTATGCGCGGGCTACTTTCCTAGTTTTCTATAAAACCCGGAGTCACCTAGTGCAG | 8160 fluorescence intensity (a.u.)
TCAAACGCACGCCACGCGACGCGACGCAGCCCAGCTCAACCGGAGTCACCTAGTGCAG | 8660 fluorescence intensity (a.u.)
CCGGGCTCCGTCGCCACGTACGCGGCCGGCTCTCCCTATACGGAGTCACCTAGTGCAG | 9030 fluorescence intensity (a.u.)
ACATCTTATCTACAACGTGTCTTTTATTTCCACCATGTACCGGAGTCACCTAGTGCAG | 8300 fluorescence intensity (a.u.)

Sequence | binding signal
GCTATGTAATGTCCCATCCGTGCTGTATAGTTTGGGTTTTCGGAGTCACCTAGTGCAG | 17200 fluorescence intensity (a.u.)
TCCGCATCCAACTTTGATTGTCCGTCTTATTTGAAATTTTCGGAGTCACCTAGTGCAG | 10800 fluorescence intensity (a.u.)
ATTCAGTTAATTTTGACTTTTTTTCCATCAATCATCAAGACGGAGTCACCTAGTGCAG | 9670 fluorescence intensity (a.u.)
TCCCTCTGCACATCTTACTACCTCTCTGAGTCGCCAAATTCGGAGTCACCTAGTGCAG | 8190 fluorescence intensity (a.u.)
TTCCTTTTGTTTCTTCCATTCCAGGCCCAATTGCCGAAGGCGGAGTCACCTAGTGCAG | 10500 fluorescence intensity (a.u.)
TACACGCTTGTCCTAAACTTATATGCTCGGTTAGATTTTTCGGAGTCACCTAGTGCAG | 8910 fluorescence intensity (a.u.)
TGATCGATCACACACGTTGCCATCACCAACTTTTCACAGACGGAGTCACCTAGTGCAG | 9990 fluorescence intensity (a.u.)
TAGTACTGGTTCTTTGTCCATTGTTGACCCATTTTTCCACCGGAGTCACCTAGTGCAG | 10600 fluorescence intensity (a.u.)
CTACTTACAATTTAAGTCAACATCAGTTCCTACACACGTTCGGAGTCACCTAGTGCAG | 8110 fluorescence intensity (a.u.)
ACCTGGTCAAACTTAAAACAGTTTGACTTTGACTAAAGCCCGGAGTCACCTAGTGCAG | 12100 fluorescence intensity (a.u.)
CGGAACTCCACCAGCAGCAGTCACGCACGTCTCTCTCTCTCGGAGTCACCTAGTGCAG | 8630 fluorescence intensity (a.u.)
CCCACTATCATCCGTCATCCGTGCAACGCACGGGCATTATCGGAGTCACCTAGTGCAG | 9340 fluorescence intensity (a.u.)
GTTTGCAGTTGCAGACACAGCCCGGCATCTTCCATCTTTTCGGAGTCACCTAGTGCAG | 8490 fluorescence intensity (a.u.)
ATCACATGACTACCTAACAAAATATTTATTTTTCTTTTTTCGGAGTCACCTAGTGCAG | 8760 fluorescence intensity (a.u.)
GTAACTATTATGTGCACCGTGTCCTTCTTTAATATAGTTGCGGAGTCACCTAGTGCAG | 9190 fluorescence intensity (a.u.)
AGATATTTTCGCTGACTCGTTGACCCACCACCCATCCCCACGGAGTCACCTAGTGCAG | 12000 fluorescence intensity (a.u.)
CCTCGCCCTCGAGCCCTCGATCTCCACATCTCTCTCGCGCCGGAGTCACCTAGTGCAG | 10900 fluorescence intensity (a.u.)
TTTACTGCCATTCTTTTTTTTAGCGCTGCTCTCACTTGATCGGAGTCACCTAGTGCAG | 8920 fluorescence intensity (a.u.)
CATCTTCCAAGGCGGGTAATTTTCAGAGCTATTGCATTGACGGAGTCACCTAGTGCAG | 10400 fluorescence intensity (a.u.)
ATGCATCCGATGACCTCATTCTTTCCTCTCTTTTCTGATACGGAGTCACCTAGTGCAG | 9160 fluorescence intensity (a.u.)
GCTAGTTTTGCTTCATTTCCCTGCCTGTGAGTGGTGCAAGCGGAGTCACCTAGTGCAG | 8630 fluorescence intensity (a.u.)

Retrieved one by one from the entries so far, three records:
Sequence | binding signal
GAGAGGTAGCGGGCTGGGTTAGGACTGAAATGGAACGAATCGGAGTCACCTAGTGCAG | 8550 fluorescence intensity (a.u.)
TGATCGATCACACACGTTGCCATCACCAACTTTTCACAGACGGAGTCACCTAGTGCAG | 9990 fluorescence intensity (a.u.)
CTACCCAATCCATCCATCCGCCGCGCCTCTCTCTCCTTCACGGAGTCACCTAGTGCAG | 11000 fluorescence intensity (a.u.)
